Source: the supplement of paper PMC10849652
Some of the results follow.

Sequences of proteins named here, by UniProt entry; tags and fusion partners are left off. A change or cut given only in a name is not applied to a line headed by its entry.
UniProt Q9BSJ2, whole entry, looked up: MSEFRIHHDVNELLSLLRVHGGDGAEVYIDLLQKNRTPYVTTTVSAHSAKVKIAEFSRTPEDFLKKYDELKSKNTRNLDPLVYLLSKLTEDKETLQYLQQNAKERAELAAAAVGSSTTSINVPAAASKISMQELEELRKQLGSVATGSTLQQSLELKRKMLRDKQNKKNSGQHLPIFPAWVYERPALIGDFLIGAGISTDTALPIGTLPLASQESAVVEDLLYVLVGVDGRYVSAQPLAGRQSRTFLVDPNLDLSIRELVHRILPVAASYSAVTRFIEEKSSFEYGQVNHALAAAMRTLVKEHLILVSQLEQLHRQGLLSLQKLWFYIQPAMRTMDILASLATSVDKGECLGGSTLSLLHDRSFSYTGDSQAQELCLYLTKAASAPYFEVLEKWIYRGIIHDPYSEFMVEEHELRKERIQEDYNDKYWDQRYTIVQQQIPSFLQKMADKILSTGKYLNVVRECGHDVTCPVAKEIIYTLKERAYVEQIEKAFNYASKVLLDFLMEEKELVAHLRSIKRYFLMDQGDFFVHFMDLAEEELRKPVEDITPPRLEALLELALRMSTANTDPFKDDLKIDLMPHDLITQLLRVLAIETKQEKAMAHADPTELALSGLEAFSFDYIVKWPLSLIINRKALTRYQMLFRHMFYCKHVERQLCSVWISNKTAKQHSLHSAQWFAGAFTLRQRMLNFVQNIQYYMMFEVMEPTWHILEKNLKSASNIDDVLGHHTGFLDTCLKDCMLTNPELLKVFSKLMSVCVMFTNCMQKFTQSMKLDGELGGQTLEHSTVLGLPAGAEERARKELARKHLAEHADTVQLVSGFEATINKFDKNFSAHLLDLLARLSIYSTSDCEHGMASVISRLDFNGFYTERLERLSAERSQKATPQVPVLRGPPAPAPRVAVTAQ
UniProt O15042: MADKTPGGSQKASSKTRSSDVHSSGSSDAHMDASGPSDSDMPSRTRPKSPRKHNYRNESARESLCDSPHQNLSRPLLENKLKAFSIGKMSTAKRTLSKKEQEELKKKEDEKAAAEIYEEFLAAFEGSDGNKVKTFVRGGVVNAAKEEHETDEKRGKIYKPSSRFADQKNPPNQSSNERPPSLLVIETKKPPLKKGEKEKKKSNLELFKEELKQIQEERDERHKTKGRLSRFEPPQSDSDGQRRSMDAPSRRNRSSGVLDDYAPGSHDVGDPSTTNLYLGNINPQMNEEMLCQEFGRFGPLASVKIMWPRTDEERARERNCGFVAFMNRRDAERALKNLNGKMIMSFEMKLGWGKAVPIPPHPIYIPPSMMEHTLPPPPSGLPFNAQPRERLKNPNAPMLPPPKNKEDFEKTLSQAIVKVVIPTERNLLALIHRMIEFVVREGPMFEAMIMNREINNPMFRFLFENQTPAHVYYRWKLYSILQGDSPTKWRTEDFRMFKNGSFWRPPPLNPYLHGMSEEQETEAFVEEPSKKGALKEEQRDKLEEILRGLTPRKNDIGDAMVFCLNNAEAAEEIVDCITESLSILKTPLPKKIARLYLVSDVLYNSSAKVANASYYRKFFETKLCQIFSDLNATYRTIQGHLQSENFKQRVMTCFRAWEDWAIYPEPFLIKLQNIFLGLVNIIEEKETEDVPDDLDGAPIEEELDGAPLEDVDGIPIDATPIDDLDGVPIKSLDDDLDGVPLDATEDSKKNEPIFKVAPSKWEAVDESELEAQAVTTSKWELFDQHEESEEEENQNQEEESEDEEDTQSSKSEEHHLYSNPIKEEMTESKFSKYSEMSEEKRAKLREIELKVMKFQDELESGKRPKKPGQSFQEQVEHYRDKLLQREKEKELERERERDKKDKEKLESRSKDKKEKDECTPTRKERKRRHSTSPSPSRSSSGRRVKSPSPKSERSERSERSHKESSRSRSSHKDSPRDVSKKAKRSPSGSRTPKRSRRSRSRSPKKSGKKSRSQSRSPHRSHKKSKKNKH
UniProt P68363, whole entry, looked up: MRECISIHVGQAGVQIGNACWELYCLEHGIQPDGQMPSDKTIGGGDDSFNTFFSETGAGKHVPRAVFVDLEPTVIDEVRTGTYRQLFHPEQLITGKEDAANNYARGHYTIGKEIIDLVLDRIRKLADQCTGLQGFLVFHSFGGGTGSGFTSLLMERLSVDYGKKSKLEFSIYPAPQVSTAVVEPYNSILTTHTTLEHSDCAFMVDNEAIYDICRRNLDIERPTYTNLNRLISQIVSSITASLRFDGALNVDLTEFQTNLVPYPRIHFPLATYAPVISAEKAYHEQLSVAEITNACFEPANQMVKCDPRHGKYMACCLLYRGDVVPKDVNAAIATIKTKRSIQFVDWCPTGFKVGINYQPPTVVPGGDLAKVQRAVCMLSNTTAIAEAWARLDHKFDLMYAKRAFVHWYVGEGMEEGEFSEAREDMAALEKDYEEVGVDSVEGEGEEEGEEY
UniProt Q99598: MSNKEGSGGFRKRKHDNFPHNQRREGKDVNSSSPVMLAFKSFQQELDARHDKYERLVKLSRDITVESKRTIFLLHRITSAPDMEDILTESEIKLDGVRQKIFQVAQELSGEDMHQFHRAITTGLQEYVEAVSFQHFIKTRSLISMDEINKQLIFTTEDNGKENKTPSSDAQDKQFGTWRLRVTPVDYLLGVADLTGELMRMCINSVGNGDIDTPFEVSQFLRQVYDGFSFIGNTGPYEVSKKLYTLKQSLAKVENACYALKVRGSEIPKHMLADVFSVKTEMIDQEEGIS
UniProt O95881: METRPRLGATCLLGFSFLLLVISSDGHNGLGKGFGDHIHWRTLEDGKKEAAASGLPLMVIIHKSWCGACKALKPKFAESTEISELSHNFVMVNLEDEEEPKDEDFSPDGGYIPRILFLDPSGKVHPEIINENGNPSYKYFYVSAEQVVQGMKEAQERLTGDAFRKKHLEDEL
UniProt P07437, whole entry, looked up: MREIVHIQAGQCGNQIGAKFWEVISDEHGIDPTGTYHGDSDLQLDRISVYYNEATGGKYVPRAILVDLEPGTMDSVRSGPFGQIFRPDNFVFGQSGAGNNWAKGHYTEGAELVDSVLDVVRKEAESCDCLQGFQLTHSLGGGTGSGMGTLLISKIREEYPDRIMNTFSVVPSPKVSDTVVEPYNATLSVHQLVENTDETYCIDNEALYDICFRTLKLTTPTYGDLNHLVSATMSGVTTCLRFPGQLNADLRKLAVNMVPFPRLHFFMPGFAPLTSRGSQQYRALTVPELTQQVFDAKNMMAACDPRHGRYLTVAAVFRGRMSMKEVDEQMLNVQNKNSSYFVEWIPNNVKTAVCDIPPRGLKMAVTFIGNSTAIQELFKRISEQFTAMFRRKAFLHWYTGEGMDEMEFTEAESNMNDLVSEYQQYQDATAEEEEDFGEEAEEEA
UniProt Q9P2K2: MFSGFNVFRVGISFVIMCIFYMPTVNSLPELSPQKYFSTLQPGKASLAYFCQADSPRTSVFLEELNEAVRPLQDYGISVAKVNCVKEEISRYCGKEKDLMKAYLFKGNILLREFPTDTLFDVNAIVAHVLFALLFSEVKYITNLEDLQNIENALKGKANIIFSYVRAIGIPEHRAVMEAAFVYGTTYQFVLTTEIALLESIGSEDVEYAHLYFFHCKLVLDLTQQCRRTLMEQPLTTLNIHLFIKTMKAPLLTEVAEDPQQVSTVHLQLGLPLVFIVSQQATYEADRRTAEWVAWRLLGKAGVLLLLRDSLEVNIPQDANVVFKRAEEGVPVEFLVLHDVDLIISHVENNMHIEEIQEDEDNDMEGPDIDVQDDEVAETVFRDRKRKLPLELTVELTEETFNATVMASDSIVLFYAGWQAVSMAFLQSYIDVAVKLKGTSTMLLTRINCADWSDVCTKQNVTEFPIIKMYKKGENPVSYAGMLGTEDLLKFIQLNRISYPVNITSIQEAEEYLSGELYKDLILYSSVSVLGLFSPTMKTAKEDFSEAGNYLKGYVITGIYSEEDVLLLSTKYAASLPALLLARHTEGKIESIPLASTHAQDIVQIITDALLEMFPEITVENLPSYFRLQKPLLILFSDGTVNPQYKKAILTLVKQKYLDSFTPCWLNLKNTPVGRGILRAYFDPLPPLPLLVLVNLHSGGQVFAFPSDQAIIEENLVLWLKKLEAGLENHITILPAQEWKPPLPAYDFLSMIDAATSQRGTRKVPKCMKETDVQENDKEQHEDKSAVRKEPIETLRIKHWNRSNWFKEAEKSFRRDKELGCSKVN
UniProt Q2NL82: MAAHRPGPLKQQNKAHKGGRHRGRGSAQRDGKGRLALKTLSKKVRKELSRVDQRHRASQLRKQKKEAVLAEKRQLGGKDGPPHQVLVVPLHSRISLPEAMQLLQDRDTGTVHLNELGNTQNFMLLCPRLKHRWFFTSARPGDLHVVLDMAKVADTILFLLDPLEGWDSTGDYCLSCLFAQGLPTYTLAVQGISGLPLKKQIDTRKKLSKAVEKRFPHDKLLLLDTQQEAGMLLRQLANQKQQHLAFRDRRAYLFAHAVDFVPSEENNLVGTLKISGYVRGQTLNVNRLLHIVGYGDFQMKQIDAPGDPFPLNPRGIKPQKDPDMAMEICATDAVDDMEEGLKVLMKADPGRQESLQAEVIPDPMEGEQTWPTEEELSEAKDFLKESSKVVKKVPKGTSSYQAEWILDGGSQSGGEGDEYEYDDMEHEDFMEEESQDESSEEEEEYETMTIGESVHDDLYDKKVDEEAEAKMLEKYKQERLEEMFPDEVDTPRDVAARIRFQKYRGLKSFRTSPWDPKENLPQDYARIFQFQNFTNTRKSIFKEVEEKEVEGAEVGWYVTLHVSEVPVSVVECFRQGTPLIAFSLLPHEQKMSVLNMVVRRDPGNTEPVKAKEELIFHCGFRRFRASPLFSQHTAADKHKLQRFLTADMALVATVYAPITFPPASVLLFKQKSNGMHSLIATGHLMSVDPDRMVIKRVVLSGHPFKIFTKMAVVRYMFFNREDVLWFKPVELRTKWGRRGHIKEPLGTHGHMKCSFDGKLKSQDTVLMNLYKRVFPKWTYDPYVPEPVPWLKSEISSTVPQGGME
UniProt Q3KQV9: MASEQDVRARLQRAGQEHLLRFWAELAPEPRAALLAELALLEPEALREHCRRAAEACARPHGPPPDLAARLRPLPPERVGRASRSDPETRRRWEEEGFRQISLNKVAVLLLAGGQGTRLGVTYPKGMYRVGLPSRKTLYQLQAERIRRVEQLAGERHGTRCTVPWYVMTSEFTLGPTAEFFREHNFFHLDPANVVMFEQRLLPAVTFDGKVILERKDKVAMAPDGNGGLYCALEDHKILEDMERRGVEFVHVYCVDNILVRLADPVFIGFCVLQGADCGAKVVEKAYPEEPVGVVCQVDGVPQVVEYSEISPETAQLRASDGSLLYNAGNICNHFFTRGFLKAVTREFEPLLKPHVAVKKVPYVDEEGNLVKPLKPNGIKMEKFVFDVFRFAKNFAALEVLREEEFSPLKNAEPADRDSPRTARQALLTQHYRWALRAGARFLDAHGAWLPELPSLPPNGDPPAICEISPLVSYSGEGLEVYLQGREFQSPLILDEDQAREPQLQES
UniProt Q9H832: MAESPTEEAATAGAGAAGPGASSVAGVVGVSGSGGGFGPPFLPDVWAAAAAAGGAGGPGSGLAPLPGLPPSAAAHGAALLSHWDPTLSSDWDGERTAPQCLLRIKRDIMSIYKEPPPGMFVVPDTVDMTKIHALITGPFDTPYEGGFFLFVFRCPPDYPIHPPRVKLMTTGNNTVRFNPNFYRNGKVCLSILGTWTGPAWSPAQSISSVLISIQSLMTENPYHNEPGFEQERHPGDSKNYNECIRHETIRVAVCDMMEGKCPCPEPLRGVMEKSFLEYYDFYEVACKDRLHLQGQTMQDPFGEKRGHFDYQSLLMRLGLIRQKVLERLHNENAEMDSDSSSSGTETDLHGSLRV
UniProt P49459, whole entry, looked up: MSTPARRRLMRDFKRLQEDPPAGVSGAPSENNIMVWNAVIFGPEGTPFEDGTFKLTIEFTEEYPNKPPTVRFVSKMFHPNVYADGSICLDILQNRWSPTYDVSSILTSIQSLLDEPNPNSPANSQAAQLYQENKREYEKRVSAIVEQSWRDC
UniProt Q6IPR3: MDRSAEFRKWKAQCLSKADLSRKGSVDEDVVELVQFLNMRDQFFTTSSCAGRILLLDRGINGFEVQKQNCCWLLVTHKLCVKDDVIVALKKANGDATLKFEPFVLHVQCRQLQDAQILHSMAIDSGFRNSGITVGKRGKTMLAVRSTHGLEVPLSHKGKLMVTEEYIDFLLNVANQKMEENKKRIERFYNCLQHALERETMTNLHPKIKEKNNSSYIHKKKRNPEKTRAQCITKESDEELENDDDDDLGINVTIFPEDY
UniProt Q12792, whole entry, looked up: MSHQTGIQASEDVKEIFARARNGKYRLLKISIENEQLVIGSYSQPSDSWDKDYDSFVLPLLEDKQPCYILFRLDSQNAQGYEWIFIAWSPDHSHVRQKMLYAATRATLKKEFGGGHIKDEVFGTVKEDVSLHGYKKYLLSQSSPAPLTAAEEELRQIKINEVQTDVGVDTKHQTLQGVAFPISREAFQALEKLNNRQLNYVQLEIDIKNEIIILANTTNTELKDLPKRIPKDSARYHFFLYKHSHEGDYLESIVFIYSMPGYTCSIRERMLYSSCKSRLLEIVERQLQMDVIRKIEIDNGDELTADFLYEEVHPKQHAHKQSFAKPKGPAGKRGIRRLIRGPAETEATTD

What was measured:
Assay in all cases: log2 fold change, soluble protein after heating vs DMSO (PISA); higher = thermal stabilisation; K562 cells, 10 uM, 30 min; active = over 0.2 and 3.5 SD of the protein, either way, in both replicates (recomputed)
[1] = compound: COC1=CC=C(C=C1)CN2C=CC3=C2C=C(C=C3)C(=O)NO
Summary of the method: (§1)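 K562 cells at 2×10^6 cells/mL were treated for 30 min with 10 μM compound, and aliquots were heated for 3 min over 48°C-58°C before pooling. Extraction used PBS with 0.5% NP-40 at 4°C, and soluble protein was the supernatant after 21,000xg for 90 min, measured by TMTpro 16plex LC-MS/MS with channel sums equalised. Thermal stability values, relative to control samples and from duplicates, are log2 fold changes.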

filanesib = compound: CON(C)C(=O)N1N=C(c2cc(F)ccc2F)S[C@@]1(CCCN)c1ccccc1 [filanesib]
Summary of the method: as §1

zotarolimus = compound: CO[C@H]1C[C@@H]2CC[C@@H](C)[C@@](O)(O2)C(=O)C(=O)N2CCCC[C@H]2C(=O)O[C@H]([C@H](C)C[C@@H]2CC[C@H](n3cnnn3)[C@H](OC)C2)CC(=O)[C@H](C)/C=C(\C)[C@@H](O)[C@@H](OC)C(=O)[C@H](C)C[C@H](C)/C=C/C=C/C=C/1C [zotarolimus]
Summary of the method: as §1

idasanutlin = compound: COc1cc(C(=O)O)ccc1NC(=O)[C@@H]1N[C@@H](CC(C)(C)C)[C@](C#N)(c2ccc(Cl)cc2F)[C@H]1c1cccc(Cl)c1F [idasanutlin]
Summary of the method: as §1

alisertib = compound: COc1cc(Nc2ncc3c(n2)-c2ccc(Cl)cc2C(c2c(F)cccc2OC)=NC3)ccc1C(=O)O [alisertib]
Summary of the method: as §1

[2] = compound: COc1cc2nc(-c3cc(F)ccc3O)nc(N[C@@H]3CNC[C@H]3C(C)(C)O)c2cc1OC
Summary of the method: as §1

gefitinib = compound: COc1cc2ncnc(Nc3ccc(F)c(Cl)c3)c2cc1OCCCN1CCOCC1 [gefitinib]
Summary of the method: as §1

[3] = compound: COc1cccc2cc(-c3nc([C@H]4CC[C@H](C(=O)O)CC4)n4ncnc(N)c34)[nH]c12
Summary of the method: as §1

lapatinib = compound: CS(=O)(=O)CCNCc1ccc(-c2ccc3ncnc(Nc4ccc(OCc5cccc(F)c5)c(Cl)c4)c3c2)o1 [lapatinib]
Summary of the method: as §1

pictilisib = compound: CS(=O)(=O)N1CCN(Cc2cc3nc(-c4cccc5[nH]ncc45)nc(N4CCOCC4)c3s2)CC1 [pictilisib]
Summary of the method: as §1

[4] = compound: CS(=O)(=O)c1ccc(-c2cnc(N)c(C(=O)Nc3ccccc3)n2)cc1
Summary of the method: as §1

crizotinib = compound: C[C@@H](Oc1cc(-c2cnn(C3CCNCC3)c2)cnc1N)c1c(Cl)ccc(F)c1Cl [crizotinib]
Summary of the method: as §1

[5] = compound: C[C@@H]1COCCN1C2=NC(=NC(=C2)C3(CC3)S(=O)(=O)C)C4=C5C=CNC5=CC=C4
Summary of the method: as §1

[6] = compound: C[C@H](C1=CC=C(C=C1)C(=O)NC2=C3C=CNC3=NC=C2)N
Summary of the method: as §1

duvelisib = compound: C[C@H](Nc1ncnc2nc[nH]c12)c1cc2cccc(Cl)c2c(=O)n1-c1ccccc1 [duvelisib]
Summary of the method: as §1

gandotinib = compound: Cc1cc(Nc2cc(CN3CCOCC3)c3nc(C)c(Cc4ccc(Cl)cc4F)n3n2)n[nH]1 [gandotinib]
Summary of the method: as §1

tozasertib = compound: Cc1cc(Nc2cc(N3CCN(C)CC3)nc(Sc3ccc(NC(=O)C4CC4)cc3)n2)n[nH]1 [tozasertib]
Summary of the method: as §1

[7] = compound: Cc1cc(SCc2sc(-c3ccc(C(F)(F)F)cc3)nc2C)ccc1OCC(=O)O
Summary of the method: as §1

doramapimod = compound: Cc1ccc(-n2nc(C(C)(C)C)cc2NC(=O)Nc2ccc(OCCN3CCOCC3)c3ccccc23)cc1 [doramapimod]
Summary of the method: as §1

ispinesib = compound: Cc1ccc(C(=O)N(CCCN)[C@@H](c2nc3cc(Cl)ccc3c(=O)n2Cc2ccccc2)C(C)C)cc1 [ispinesib]
Summary of the method: as §1

Measured: log2 fold change

TUBGCP2 isoform 4 (UniProt Q9BSJ2)
inactive: [1] 0.041 | filanesib 0.172 | zotarolimus 0.148 | idasanutlin 0.078 | alisertib -0.085 | [2] -0.025 | gefitinib 0.013 | [3] -0.105 | lapatinib 0.023 | pictilisib 0.033 | [4] 0.034 | crizotinib -0.103 | [5] -0.062 | [6] 0.327 | duvelisib -0.068 | gandotinib 0.098 | tozasertib -0.043 | [7] 0.136 | doramapimod 0.15 | ispinesib -0.342

U2SURP (UniProt O15042)
inactive: [1] 0.157 | filanesib 0.185 | zotarolimus 0.092 | idasanutlin 0.126 | alisertib 0.096 | [2] -0.113 | gefitinib 0.048 | [3] -0.008 | lapatinib 0.068 | pictilisib 0.003 | [4] -0.024 | crizotinib -0.145 | [5] 0.062 | [6] -0.01 | duvelisib 0.011 | gandotinib -0.035 | tozasertib 0.111 | [7] 0.064 | doramapimod -0.034 | ispinesib -0.034

TUBA1B (UniProt P68363)
inactive: [1] 0.012 | filanesib -0.118 | zotarolimus -0.056 | idasanutlin -0.052 | alisertib -0.033 | [2] -0.01 | gefitinib -0.005 | [3] 0.07 | lapatinib 0.008 | pictilisib -0.014 | [4] 0.015 | crizotinib -0.171 | [5] 0.058 | [6] -0.025 | duvelisib 0.036 | gandotinib -0.03 | tozasertib -0.067 | [7] -0.006 | doramapimod 0.003 | ispinesib -0.005

TSNAX (UniProt Q99598)
inactive: [1] 0.007 | filanesib -0.039 | zotarolimus 0.009 | idasanutlin 0.009 | alisertib -0.036 | [2] 0.01 | gefitinib -0.022 | [3] 0.043 | lapatinib 0.004 | pictilisib 0.007 | [4] 0.006 | crizotinib 0.057 | [5] 0.04 | [6] -0.022 | duvelisib 0.013 | gandotinib 0.023 | tozasertib -0.035 | [7] -0.026 | doramapimod -0.029 | ispinesib 0.036

TXNDC12 (UniProt O95881)
inactive: [1] -0.146 | filanesib 0.069 | zotarolimus 0.028 | idasanutlin -0.016 | alisertib -0.088 | [2] 0.049 | gefitinib -0.001 | [3] -0.001 | lapatinib -0.073 | pictilisib 0.01 | [4] 0.049 | crizotinib 0.081 | [5] 0.029 | [6] 0.196 | duvelisib 0.054 | gandotinib 0.103 | tozasertib 0.056 | [7] -0.032 | doramapimod 0.001 | ispinesib 0.006

TUBB (UniProt P07437)
inactive: [1] 0.041 | filanesib -0.101 | zotarolimus 0.009 | idasanutlin -0.04 | alisertib -0.02 | [2] 0.024 | gefitinib -0.03 | [3] 0.091 | lapatinib -0.046 | pictilisib 0.011 | [4] 0.045 | crizotinib -0.135 | [5] 0.079 | [6] -0.008 | duvelisib 0.114 | gandotinib -0.059 | tozasertib -0.043 | [7] 0.04 | doramapimod -0.008 | ispinesib -0.026

Two successive entries already listed:
U2SURP (UniProt O15042)
inactive: [1] 0.157 | filanesib 0.185 | zotarolimus 0.092 | idasanutlin 0.126 | alisertib 0.096 | [2] -0.113 | gefitinib 0.048 | [3] -0.008 | lapatinib 0.068 | pictilisib 0.003 | [4] -0.024 | crizotinib -0.145 | [5] 0.062 | [6] -0.01 | duvelisib 0.011 | gandotinib -0.035 | tozasertib 0.111 | [7] 0.064 | doramapimod -0.034 | ispinesib -0.034

TUBA1B (UniProt P68363)
inactive: [1] 0.012 | filanesib -0.118 | zotarolimus -0.056 | idasanutlin -0.052 | alisertib -0.033 | [2] -0.01 | gefitinib -0.005 | [3] 0.07 | lapatinib 0.008 | pictilisib -0.014 | [4] 0.015 | crizotinib -0.171 | [5] 0.058 | [6] -0.025 | duvelisib 0.036 | gandotinib -0.03 | tozasertib -0.067 | [7] -0.006 | doramapimod 0.003 | ispinesib -0.005

Next entries.

TXNDC16 (UniProt Q9P2K2)
inactive: [1] -0.104 | filanesib -0.029 | zotarolimus -0.015 | idasanutlin 0.018 | alisertib -0.115 | [2] 0.176 | gefitinib 0.084 | [3] -0.116 | lapatinib 0.055 | pictilisib 0.003 | [4] 0.01 | crizotinib -0.04 | [5] -0.014 | [6] 0.06 | duvelisib -0.014 | gandotinib 0.037 | tozasertib -0.015 | [7] 0.041 | doramapimod 0.161 | ispinesib -0.097

TSR1 (UniProt Q2NL82)
inactive: [1] 0.052 | filanesib 0.153 | zotarolimus 0.067 | idasanutlin 0.076 | alisertib -0.097 | [2] 0.271 | gefitinib -0.051 | [3] -0.213 | lapatinib 0.062 | pictilisib -0.008 | [4] -0.012 | crizotinib -0.061 | [5] -0.225 | [6] 0.334 | duvelisib -0.011 | gandotinib 0.044 | tozasertib 0.054 | [7] 0.158 | doramapimod 0.138 | ispinesib -0.139

UAP1L1 (UniProt Q3KQV9)
inactive: [1] -0.054 | filanesib -0.1 | zotarolimus -0.038 | idasanutlin -0.037 | alisertib -0.052 | [2] 0.01 | gefitinib 0.015 | [3] 0.078 | lapatinib 0.027 | pictilisib -0.014 | [4] 0.036 | crizotinib -0.076 | [5] 0.134 | [6] 0.097 | duvelisib 0.109 | gandotinib -0.085 | tozasertib -0.064 | [7] 0.014 | doramapimod 0.001 | ispinesib -0.025

UBAP2 (UniProt Q5T6F2)
inactive: [1] -0.007 | filanesib -0.027 | zotarolimus -0.043 | idasanutlin -0.003 | alisertib -0.051 | [2] 0.021 | gefitinib -0.004 | [3] 0.049 | lapatinib -0.02 | pictilisib -0.038 | [4] 0.006 | crizotinib 0.031 | [5] -0.006 | [6] -0.035 | duvelisib -0.015 | gandotinib 0.015 | tozasertib -0.007 | [7] -0.038 | doramapimod -0.002 | ispinesib -0.011

TTN isoform 12 (UniProt Q8WZ42)
inactive: [1] -0.34 | filanesib 0.076 | zotarolimus -0.149 | idasanutlin 0.005 | alisertib -0.153 | [2] 0.236 | gefitinib -0.021 | [3] -0.018 | lapatinib -0.247 | pictilisib 0.1 | [4] 0.116 | crizotinib 0.068 | [5] 0.034 | [6] 0.219 | duvelisib 0.274 | gandotinib -0.008 | tozasertib -0.134 | [7] -0.134 | doramapimod -0.053 | ispinesib -0.114

UBE2Z (UniProt Q9H832)
inactive: [1] 0.036 | filanesib -0.072 | zotarolimus 0.014 | idasanutlin -0.049 | alisertib -0.069 | [2] 0.038 | gefitinib -0.002 | [3] 0.007 | lapatinib 0.04 | pictilisib -0.025 | [4] 0.045 | crizotinib -0.044 | [5] 0.046 | [6] -0.017 | duvelisib 0.074 | gandotinib -0.045 | tozasertib -0.025 | [7] -0.007 | doramapimod 0.007 | ispinesib -0.008

UBE2A (UniProt P49459)
inactive: [1] 0 | filanesib -0.037 | zotarolimus 0.045 | idasanutlin -0.065 | alisertib -0.074 | [2] 0.054 | gefitinib 0.041 | [3] -0.026 | lapatinib 0.001 | pictilisib 0.086 | [4] 0.006 | crizotinib -0.033 | [5] 0.013 | [6] -0.145 | duvelisib 0.023 | gandotinib -0.147 | tozasertib 0.054 | [7] -0.038 | doramapimod -0.149 | ispinesib 0.067

TYW3 (UniProt Q6IPR3)
inactive: [1] 0.007 | filanesib 0.059 | zotarolimus 0 | idasanutlin 0.045 | alisertib 0.033 | [2] -0.042 | gefitinib -0.044 | [3] 0.019 | lapatinib 0.051 | pictilisib -0.044 | [4] 0.009 | crizotinib -0.022 | [5] -0.04 | [6] 0.114 | duvelisib -0.124 | gandotinib 0.04 | tozasertib 0.02 | [7] -0.074 | doramapimod 0.021 | ispinesib -0.146

TWF1 (UniProt Q12792)
inactive: [1] 0.143 | filanesib -0.065 | zotarolimus 0.061 | idasanutlin -0.045 | alisertib -0.014 | [2] -0.021 | gefitinib -0.022 | [3] 0.054 | lapatinib 0.023 | pictilisib 0.038 | [4] 0.039 | crizotinib 0 | [5] 0.111 | [6] 0.007 | duvelisib -0.007 | gandotinib -0.047 | tozasertib 0.033 | [7] 0.036 | doramapimod -0.053 | ispinesib 0.142

TSPAN14 (UniProt Q8NG11)
inactive: [1] -0.058 | filanesib -0.025 | zotarolimus -0.054 | idasanutlin -0.017 | alisertib 0.054 | [2] -0.027 | gefitinib -0.016 | [3] 0.067 | lapatinib -0.078 | pictilisib 0.219 | [4] 0.074 | crizotinib 0.137 | [5] 0.131 | [6] -0.084 | duvelisib 0.128 | gandotinib -0.146 | tozasertib -0.053 | [7] -0.035 | doramapimod 0.006 | ispinesib -0.063
